These are yes or no findings as the source states them, for the method shown. In cells and extracts the contact can be indirect. Binding calls can cover weak binding; strength is not graded here.
Biological target: TRIM52 (ΔLoop2), HA-tagged (human) (UniProt Q96A61)
Assay: co-IP

Protein sequences, listed by entry. Tags and fused reporters are not part of them. Lines headed by an entry give the natural chain unless they say otherwise; changes in a name come on top.
UniProt Q96A61: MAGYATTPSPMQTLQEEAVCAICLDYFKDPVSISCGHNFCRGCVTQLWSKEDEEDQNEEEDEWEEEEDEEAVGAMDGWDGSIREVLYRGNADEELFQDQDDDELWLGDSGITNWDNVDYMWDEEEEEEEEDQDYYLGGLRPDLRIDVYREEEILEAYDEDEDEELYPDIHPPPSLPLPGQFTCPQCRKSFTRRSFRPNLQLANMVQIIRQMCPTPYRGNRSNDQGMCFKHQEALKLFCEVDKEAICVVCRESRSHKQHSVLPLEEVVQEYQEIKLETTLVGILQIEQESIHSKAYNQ
UniProt Q9NR09: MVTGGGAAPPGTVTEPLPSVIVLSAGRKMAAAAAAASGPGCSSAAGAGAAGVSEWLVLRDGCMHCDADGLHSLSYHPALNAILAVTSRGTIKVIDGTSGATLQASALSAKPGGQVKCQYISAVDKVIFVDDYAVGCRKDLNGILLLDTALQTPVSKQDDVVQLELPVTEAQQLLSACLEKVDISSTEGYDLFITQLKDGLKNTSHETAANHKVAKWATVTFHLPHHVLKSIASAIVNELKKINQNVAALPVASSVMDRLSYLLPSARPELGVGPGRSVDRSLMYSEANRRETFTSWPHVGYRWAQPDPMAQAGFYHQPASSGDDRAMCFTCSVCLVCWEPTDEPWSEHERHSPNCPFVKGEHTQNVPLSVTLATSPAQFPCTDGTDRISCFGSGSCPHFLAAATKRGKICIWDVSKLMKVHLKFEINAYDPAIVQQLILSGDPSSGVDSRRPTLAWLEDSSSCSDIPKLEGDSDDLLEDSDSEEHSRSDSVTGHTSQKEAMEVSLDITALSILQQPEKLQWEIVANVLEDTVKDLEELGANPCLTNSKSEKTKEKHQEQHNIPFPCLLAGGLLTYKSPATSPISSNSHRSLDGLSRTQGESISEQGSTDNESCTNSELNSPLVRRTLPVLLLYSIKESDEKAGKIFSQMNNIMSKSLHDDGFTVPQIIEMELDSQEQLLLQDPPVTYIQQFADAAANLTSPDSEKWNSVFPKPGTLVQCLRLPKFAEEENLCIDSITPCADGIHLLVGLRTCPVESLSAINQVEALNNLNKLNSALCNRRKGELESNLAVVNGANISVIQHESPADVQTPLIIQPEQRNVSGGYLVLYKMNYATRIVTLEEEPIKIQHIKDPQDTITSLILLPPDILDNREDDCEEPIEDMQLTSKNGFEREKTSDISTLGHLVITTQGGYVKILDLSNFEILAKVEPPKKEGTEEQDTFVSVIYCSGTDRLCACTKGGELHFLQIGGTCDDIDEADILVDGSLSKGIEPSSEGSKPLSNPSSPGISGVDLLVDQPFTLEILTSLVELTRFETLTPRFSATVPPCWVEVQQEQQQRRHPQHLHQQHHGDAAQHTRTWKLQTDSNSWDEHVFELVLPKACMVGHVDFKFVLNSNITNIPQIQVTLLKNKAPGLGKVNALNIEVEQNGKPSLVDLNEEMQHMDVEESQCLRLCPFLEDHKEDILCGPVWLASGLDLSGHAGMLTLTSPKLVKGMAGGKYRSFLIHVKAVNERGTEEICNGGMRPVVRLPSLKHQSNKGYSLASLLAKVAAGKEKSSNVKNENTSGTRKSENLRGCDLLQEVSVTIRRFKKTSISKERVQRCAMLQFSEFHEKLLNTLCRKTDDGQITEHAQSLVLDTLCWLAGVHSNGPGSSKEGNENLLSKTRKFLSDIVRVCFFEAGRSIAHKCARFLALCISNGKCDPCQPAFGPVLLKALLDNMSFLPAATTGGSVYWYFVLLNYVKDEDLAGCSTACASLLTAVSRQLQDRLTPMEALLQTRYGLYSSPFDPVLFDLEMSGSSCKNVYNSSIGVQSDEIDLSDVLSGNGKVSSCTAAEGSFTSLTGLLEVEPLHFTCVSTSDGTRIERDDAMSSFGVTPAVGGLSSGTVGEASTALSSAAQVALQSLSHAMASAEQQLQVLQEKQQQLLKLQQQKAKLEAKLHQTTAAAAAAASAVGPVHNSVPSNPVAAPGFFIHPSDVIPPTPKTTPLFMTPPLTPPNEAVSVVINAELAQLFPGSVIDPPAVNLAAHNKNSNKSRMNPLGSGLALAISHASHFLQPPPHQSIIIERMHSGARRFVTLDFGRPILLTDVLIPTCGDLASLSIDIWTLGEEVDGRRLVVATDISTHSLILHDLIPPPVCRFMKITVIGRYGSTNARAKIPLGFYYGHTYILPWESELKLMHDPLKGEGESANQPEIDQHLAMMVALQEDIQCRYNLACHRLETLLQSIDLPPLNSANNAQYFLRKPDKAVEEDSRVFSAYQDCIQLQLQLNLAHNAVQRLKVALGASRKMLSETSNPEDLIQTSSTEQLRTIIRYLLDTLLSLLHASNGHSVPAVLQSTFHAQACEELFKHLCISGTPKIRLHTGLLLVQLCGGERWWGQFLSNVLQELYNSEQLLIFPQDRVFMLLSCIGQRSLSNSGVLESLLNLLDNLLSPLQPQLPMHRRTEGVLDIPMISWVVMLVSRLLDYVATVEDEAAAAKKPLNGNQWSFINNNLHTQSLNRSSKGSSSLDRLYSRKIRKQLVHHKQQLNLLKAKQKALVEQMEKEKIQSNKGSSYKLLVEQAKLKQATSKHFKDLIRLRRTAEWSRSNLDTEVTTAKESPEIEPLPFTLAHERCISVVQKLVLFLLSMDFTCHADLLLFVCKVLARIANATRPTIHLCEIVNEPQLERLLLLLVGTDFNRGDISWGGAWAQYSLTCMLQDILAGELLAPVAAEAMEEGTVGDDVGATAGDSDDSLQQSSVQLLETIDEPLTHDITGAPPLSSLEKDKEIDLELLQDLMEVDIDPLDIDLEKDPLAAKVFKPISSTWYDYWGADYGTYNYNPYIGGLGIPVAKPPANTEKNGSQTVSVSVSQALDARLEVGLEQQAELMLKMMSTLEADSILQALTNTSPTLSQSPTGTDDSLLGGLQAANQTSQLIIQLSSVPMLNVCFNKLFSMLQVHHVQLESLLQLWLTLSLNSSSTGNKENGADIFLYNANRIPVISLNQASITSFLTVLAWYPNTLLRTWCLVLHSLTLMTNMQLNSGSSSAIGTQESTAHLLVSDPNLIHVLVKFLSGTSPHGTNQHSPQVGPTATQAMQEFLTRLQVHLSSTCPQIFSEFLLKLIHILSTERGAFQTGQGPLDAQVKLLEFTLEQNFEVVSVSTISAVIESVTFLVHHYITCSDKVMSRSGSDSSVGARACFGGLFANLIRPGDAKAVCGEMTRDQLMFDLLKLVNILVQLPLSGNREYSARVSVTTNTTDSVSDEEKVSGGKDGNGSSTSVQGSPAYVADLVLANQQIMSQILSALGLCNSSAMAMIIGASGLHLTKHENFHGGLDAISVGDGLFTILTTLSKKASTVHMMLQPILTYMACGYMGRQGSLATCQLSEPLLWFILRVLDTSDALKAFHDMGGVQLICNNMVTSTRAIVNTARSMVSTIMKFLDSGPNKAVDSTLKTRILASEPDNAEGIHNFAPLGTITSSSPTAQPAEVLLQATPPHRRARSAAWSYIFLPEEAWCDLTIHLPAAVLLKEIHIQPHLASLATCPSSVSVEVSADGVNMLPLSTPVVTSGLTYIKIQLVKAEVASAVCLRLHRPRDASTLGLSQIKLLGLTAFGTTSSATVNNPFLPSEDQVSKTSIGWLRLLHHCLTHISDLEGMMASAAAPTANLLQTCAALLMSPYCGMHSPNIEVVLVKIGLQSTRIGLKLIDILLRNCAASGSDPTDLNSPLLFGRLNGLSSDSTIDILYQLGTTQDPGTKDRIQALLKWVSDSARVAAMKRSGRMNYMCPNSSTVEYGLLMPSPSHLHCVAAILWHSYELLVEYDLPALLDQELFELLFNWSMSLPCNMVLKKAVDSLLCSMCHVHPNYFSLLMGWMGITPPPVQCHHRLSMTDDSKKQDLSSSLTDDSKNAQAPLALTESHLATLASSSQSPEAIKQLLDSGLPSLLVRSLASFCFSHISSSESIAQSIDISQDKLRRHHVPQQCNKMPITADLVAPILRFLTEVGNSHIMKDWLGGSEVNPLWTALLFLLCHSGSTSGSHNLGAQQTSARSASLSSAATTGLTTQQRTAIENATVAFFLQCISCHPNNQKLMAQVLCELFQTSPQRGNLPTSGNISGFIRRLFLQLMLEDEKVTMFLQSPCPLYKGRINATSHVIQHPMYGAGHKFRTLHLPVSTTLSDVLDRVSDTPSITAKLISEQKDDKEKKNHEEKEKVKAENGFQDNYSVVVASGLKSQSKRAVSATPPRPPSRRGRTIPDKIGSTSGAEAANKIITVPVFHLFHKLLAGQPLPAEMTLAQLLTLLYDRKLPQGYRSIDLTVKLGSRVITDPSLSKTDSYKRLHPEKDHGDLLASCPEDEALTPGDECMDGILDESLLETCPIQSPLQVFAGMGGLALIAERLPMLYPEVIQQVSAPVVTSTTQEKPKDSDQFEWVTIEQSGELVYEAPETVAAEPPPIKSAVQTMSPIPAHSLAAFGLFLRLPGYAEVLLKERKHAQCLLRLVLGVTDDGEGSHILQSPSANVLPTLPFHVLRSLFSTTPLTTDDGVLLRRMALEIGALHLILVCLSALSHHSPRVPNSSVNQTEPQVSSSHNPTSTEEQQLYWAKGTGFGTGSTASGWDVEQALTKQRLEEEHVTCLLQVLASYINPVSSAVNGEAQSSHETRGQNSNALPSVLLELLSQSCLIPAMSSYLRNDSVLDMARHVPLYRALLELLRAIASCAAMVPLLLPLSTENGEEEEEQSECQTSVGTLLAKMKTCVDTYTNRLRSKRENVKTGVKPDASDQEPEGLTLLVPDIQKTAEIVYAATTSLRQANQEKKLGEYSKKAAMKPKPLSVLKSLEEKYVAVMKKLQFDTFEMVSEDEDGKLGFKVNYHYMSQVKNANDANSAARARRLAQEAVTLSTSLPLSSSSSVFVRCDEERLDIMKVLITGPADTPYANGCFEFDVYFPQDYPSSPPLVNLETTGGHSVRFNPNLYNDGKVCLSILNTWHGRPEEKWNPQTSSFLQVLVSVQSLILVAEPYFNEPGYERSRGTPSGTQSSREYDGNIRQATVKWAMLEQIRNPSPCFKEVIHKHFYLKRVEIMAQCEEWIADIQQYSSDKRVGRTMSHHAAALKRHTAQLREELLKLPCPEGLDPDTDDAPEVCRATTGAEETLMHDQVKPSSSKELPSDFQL

binding: binds
Substance: BIRC6 (endogenous) (from UniProt Q9NR09 1-4857) (enzyme)
